The assay in a line: Stat Signaling Pathway (AID 446).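 Also: ME-180 cervical cancer cells given 40 pM IL-6 alongside compound; SIE-controlled beta-lactamase reporter measured as 460/530 nm FRET emission ratio.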 To be noted: ME-180 SIE beta-lactamase reporter, IL-6 stimulated, 5 h; at 38 µM (top of the series). Put shortly: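 ME-180 cells carrying a SIE-driven beta-lactamase reporter are stimulated with 40 pM IL-6 for 5 h at 37C in the presence of compound. The 460/530 nm FRET substrate ratio is read after 2.5 h at RT. Data are normalised to 300 pM IL-6 and to 125 nM JAK inhibitor controls.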

activity, negative = inhibition data for one compound are collected here from PubChem BioAssay (NCATS).

This list holds what a sample rich in hits left over. Results filed as inconclusive are left out. Active and inactive are the calls of the source. Calls follow the shape of the dose curve; as a rule, active = well fitted curve in either direction with a large enough effect (not every such curve was filed as active); inconclusive = small, poorly fitted or top-dose-only effect, or another doubt; inactive = flat fitted curve, though single readings scatter.
% is scaled to controls: 0 for no effect and ±100 for the full control effect.

`Oc1cc2c(c(Cl)c1O)CCNC[C@H]2c1ccccc1`: the activity, negative = inhibition was inactive: -15.9%.
